In this assay the target is VN (I152L)-ANXA2 (ANXA2-full length in pBiFC-VN155 (I152L)) (human) (UniProt P07355). Description: split reporter; BiFC: pBiFC-VC155 and pBiFC-VN155 (I152L) constructs co-transfected into HEK293T cells, fluorescence microscopy after 48 h.

Sequences of proteins named here, by UniProt entry; tags and fusion partners are left off. A change or cut given only in a name is not applied to a line headed by its entry.
UniProt P07355: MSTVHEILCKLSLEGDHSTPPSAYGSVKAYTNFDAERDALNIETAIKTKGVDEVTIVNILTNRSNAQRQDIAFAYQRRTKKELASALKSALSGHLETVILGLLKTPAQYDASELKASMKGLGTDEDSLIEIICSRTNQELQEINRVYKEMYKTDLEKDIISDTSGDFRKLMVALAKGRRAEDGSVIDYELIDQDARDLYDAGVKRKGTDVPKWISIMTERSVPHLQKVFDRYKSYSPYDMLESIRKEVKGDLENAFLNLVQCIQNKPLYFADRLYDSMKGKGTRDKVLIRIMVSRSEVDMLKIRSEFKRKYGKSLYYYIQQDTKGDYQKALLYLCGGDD
UniProt P29279: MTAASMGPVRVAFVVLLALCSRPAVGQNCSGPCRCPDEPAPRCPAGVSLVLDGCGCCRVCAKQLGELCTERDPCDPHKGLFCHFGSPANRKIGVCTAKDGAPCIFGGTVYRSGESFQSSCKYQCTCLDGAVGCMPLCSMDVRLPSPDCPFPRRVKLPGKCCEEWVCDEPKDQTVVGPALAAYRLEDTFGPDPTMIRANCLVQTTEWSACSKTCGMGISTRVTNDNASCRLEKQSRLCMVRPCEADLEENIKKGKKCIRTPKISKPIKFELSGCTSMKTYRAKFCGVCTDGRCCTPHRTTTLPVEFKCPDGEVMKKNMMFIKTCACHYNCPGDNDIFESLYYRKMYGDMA

These are yes or no findings as the source states them, for the method shown. In cells and extracts the contact can be indirect.

Turning to “VC155-CTGF-∆TSP1 (CTGF-∆TSP1 in pBiFC-VC155) (from UniProt P29279)”, the binding result is listed as “no binding”.
